Assay results: PubChem BioAssay AID1508600 (Functional Genomics Laboratory (NCATS/FGL), 2020)
About 3,700 (7%) of roughly 53,000 sequences were called active.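 How the source made its calls: active means gene knockdowns whose robust z-score for IL-1 alpha signal is at least 2 or at most -2, so actives lie on both sides; inactive means the rest.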 Some of the results follow.

Test: Components of the Cytosolic LPS Sensing Pathway: Gene Identification via Genome-wide siRNA Screen
Conditions: RAW264.7 macrophages, IL-1a HTRF, actives lie on both sides, screened at 100 nM (by protocol), cells primed 5 h with Pam3CSK4 first
Description: Non-canonical inflammasome activation by cytosolic LPS is a critical component of the host response to Gram-negative bacterial infection, however we lack a comprehensive understanding of the cellular processes that control this pathway. Here we describe a genome-wide siRNA screen to identify genes regulating the mouse macrophage IL-1 alpha response to cytosolic LPS.
RAW264.7 cells were maintained in complete DMEM media, comprising DMEM with 4.5 g/L glucose, 10% FBS (Gemini Bio-Products, West Sacramento, CA), 2 mM Glutamine (Lonza) and 20 mM HEPES (Lonza), hereafter complete DMEM.
The RNAi screen was conducted in 384-well format using the Ambion Silencer Mouse Genome siRNA Library (#4391425), which consists of three unique, nonoverlapping, nonpooled siRNAs for each of 17,000 gene targets. siRNA reagents ([…]) were stamped into 384-well white flat-bottom microplates (Corning, 3570) using a Velocity11 VPrep liquid handling system (Agilent) integrated into a BioCel robotic platform (Agilent) in columns 1-22, leaving columns 23-24 empty for negative (Ambion, Negative control #1) and positive (mouse Casp4) controls, respectively. The median value of each plate's negative control column was used to normalize sample wells, and the positive control was used to assess transfection efficiency and assay performance.
Lipofectamine RNAiMAX Transfection Reagent ([…]; Invitrogen) was added in […] serum-free, antibiotic-free media to plate wells using a Thermo Scientific Matrix WellMate and Microplate Stacker. Plates were incubated for 45 min at room temperature to allow for the sufficient formation of siRNA-lipid complexes. Cells were seeded at a density of 1x10^4 cells per well in 20 microL media containing 20% (vol/vol) FBS without antibiotics. The final concentration of siRNA in each well was 100 nM. Cells were cultured for 48h at 37 degrees C in 5% CO2 before addition of […] of TLR ligand Pam3CSK4 for 5 hours. The medium was then removed, replaced with […] growth media and cell were transfected with […] of LipidA and TransIT-TKO (Mirus) for 24 hour. At the end of the LipidA treatment, […] of supernatant was transferred to a 384 Greiner Bio-one non-binding low volume plate and […] of IL-1a HTRF reagent (Cisbio, 62MIL1APEH) was added and incubated at room temperature overnight. The plates were read on an EnVision plate reader (PerkinElmer). Cell viability was measured by adding 20ul Cell Titer Glo to the original plate and running a luminescence read on the EnVision. The quantified IL-1a signal for each siRNA gene-targeted well was divided by the median of the negative control wells and multiplied by 100 to achieve a negative control normalized value for each well/siRNA. This normalized value was then used to generate a robust z-score by first taking the log of each value and then by subtracting the median and dividing by the […].

Row | Sequence | z-score
1 | GGUUGCCCAAAACUCUAGATT against Elovl7 | inactive: 0.793
2 | GGCAUGUUCUCUAAGGAAGTT against Gm4814 | inactive: -0.533
3 | GGAUGUGCCCAAGGACAAGTT against Foxc2 | inactive: 0.779
4 | GGAUGUCAAAUCUUCCAUATT against Olfr971 | inactive: -0.447
5 | GGUCGAGGACAAAAAAAAATT against Dner | active: -2.27
6 | GGCUCACUCAUCAAUUCCCTT against 2210010C04Rik | inactive: -0.432
7 | GGAAAAGAGGAGUGAAAUCTT against Tmsb10 | inactive: -1.08
8 | GCAAAGGAGGCUUCUAUUGTT against Olfr380 | inactive: -0.803
9 | GGAUAGUCUUUCCAGAUGGTT against Slamf7 | inactive: -1.26
10 | GGUCACCAUCAUCAUCAAUTT against Carmil1 | inactive: 0.484
11 | GGUGAAAAGUCUCUGAAUGTT against Pbk | inactive: 0.253
12 | CCAGGAAUGACACGGGAUGTT against Mdh2 | inactive: 1.99
13 | GGUCAACAAUCACUUUUUCTT against Pip4k2c | inactive: -0.794
14 | CGACUGAUAGAUGAGUAAATT against C130026L21Rik | inactive: 0.424
15 | GGACAGGAAGAAAAGAAACTT against Vmn2r-ps11 | inactive: -1.19
16 | GCAGCUUCAAGAGAGCCAUTT against Rhbdl1 | inactive: -0.604
17 | GCCUAUGGACCAGUUAGAUTT against Nono | inactive: -0.786
18 | CGGUCUGCUCUACAUUGUCTT against Nek4 | inactive: 1.39
19 | CCUCAGUACGUGCAGUAUGTT against Mos | inactive: -0.447
20 | GGGAAGGCUGAAUGACUGCTT against Vamp5 | inactive: 0.257
21 | GGUGCUGGAGAAAACCUUGTT against Gdpd1 | inactive: -1.09
22 | GCAAUCCAUUGAAAGAGGCTT against Hps3 | inactive: -1.17

Rewritten in markdown: entries from further up.

| Row | Sequence | z-score |
| --- | --- | --- |
| 2 | GGCAUGUUCUCUAAGGAAGTT against Gm4814 | inactive: -0.533 |
| 6 | GGCUCACUCAUCAAUUCCCTT against 2210010C04Rik | inactive: -0.432 |
| 15 | GGACAGGAAGAAAAGAAACTT against Vmn2r-ps11 | inactive: -1.19 |
| 21 | GGUGCUGGAGAAAACCUUGTT against Gdpd1 | inactive: -1.09 |

Part of the list above, in markdown.

| Row | Sequence | z-score |
| --- | --- | --- |
| 12 | CCAGGAAUGACACGGGAUGTT against Mdh2 | inactive: 1.99 |
| 13 | GGUCAACAAUCACUUUUUCTT against Pip4k2c | inactive: -0.794 |

Going on with the list.

Row | Sequence | z-score
23 | GCGACUAGUAGUGCAUGAATT against Wdr13 | inactive: -0.434
24 | GAGCUCUUGGUGGAUCAUCTT against Foxo3 | inactive: -0.62
25 | GGCGGUUUUUUGUCUAUGCTT against Serpina1e | inactive: -0.503
26 | GGAAAUCUUCAAACUUAGATT against Tlk2 | inactive: 0.743
27 | GGAUUUUGAGAAGAACAAUTT against Eloa | inactive: 1.29
28 | GGGUCAGUGACUAAGCUUCTT against Abca7 | inactive: -0.107
29 | CGGGACUAUUAUUACUCCATT against Ap2m1 | inactive: -1.22
30 | CGAAUACAACCAGUUUCUGTT against Adam11 | inactive: 0.235
31 | GCUGACUCCAUCCUAACAGTT against Cideb | active: -2.6
32 | GGAGGAUAUGAGCAAGUACTT against Isg20 | inactive: -0.476
33 | GGAAUCCUCUAAAUGACCUTT against Vmn1r174 | inactive: -1.49
34 | CCUUGAAUCGGCCCUGAAATT against Cfap57 | inactive: -0.252
35 | GGCAGCGAAAGUUUUCAAGTT against Pcdhga12 | inactive: 0.721
36 | GGACUGAAUCUUUAAAGGUTT against Nkx1-2 | inactive: 0.199
37 | GGUACUGAUUGCUUUCUCUTT against Olfr1491 | inactive: -1.55
38 | GGAGGACAACAAGUACUGCTT against Smap1 | inactive: -1.08
39 | GGCCCAGGUGGAUAGUUAUTT against Cep120 | active: 2.03
40 | GGACAACAUCUUCAAAGGATT against Slc12a1 | inactive: 0.617
41 | GGACAAACGGGAAAAGAAGTT against Sprr2d | active: -2.04
42 | GGAGAACUGAAAGACGUGCTT against Vgll1 | inactive: -0.427
43 | GGAAGACCAGCAGUUAAGATT against Grb10 | inactive: -1.56
44 | GGUAAAAUAUAGUUUGCGCTT against Abca14 | inactive: 1.06

Row | Sequence | z-score
45 | CGCAUACAUCAGGUCACUATT against Katnb1 | inactive: -0.74
46 | GGAGAUUCUUCUCAUUGGCTT against Gmppa | inactive: -0.491
47 | GGAAGAACACAAGUGUUUUTT against Trem3 | inactive: -0.626
48 | CCAGUGUAAUCGAGUGUGATT against Atp10a | inactive: 0.909
49 | GCUGGGUGAACUUACAGGATT against Wars2 | inactive: 0.567
50 | GCCCAUGUUUUUUUUUCUGTT against Olfr648 | inactive: 0.776
51 | GGACUCAAAUGUGAUGCAUTT against Prkcq | inactive: -0.718
52 | GGACAUCGCAUGUUUGAAATT against Fam72a | inactive: 0.496
53 | GCUGACCUCAAUGACUACATT against Ccl9 | inactive: -0.17
54 | CCUUUCAAUGACUACGAUUTT against Rnase9 | inactive: -0.425
55 | GGUUCAAGCAGGUCAAAGUTT against Acbd6 | inactive: -1.36
56 | GGCUGACAGUGGAGUCUAUTT against Ceacam9 | inactive: -0.114
57 | GGAUAUGUCAGCAUAUGUGTT against Yeats4 | inactive: -0.583
58 | GCUGACUUCAGUUGUGGCATT against Baz2a | inactive: -1.42
59 | GGGUUGUUCGGAGGAAACATT against Napb | inactive: -0.423
60 | GGAAUGUGAAGAAGAAAUUTT against Dnttip2 | active: 2.03
61 | GGAGUAUGUCAAUUAGCAUTT against Vmn1r229 | inactive: 0.189
62 | CCUUCAAAUGAACUCUACUTT against Fcer1a | inactive: 0.0774
63 | GGGAAAAACUCUGUGUGUATT against Coasy | inactive: -0.25
64 | GGAUGUUCUACUGCUACACTT against Dtwd1 | inactive: -0.706
65 | GGUACAUAUUACAUUCUUCTT against Cldn12 | inactive: -0.408
66 | GGUGCUAAAUAAGACAAUGTT against Psma4 | inactive: -1.76

Row | Sequence | z-score
67 | CGAAGGGAAGCAAAAUACATT against Bend5 | active: 2.11
68 | CACCGAGUAUAUCUAUAAUTT against Ear14 | inactive: 0.131
69 | CCAUGAUCAAGAUUGUGCUTT against Slc29a1 | inactive: -1.86
70 | GCUAACCAGUGAUCCUACATT against Olfr846 | inactive: 0.471
71 | GCCGGAGUGCACAAUCAAATT against Rarres2 | inactive: 0.908
72 | GCUACUAGAGGAGAUGGACTT against Sart1 | inactive: 0.466
73 | GGACAUGUCUCAGGAAAACTT against Btc | inactive: -0.446
74 | GGCAAUUGCACCAUUGAAUTT against Megf9 | inactive: 0.494
75 | GGAAAACAUACUGCUUUGATT against Abhd17c | inactive: 1.93
76 | GGUUUGAAUCAAAUUGUACTT against Hyou1 | inactive: -1.12
77 | GGAUGCUACAACACUCUACTT against Flrt3 | inactive: 1.53
78 | GCUUAUUUCAAAAAGGGAGTT against Mal2 | inactive: -1.11
79 | CCAAAAGUCCGAUAUGAAATT against Ints9 | inactive: -0.888
80 | GCAAUUCAGGUUUACUACATT against Fgg | inactive: 0.00733
81 | GGCUGAAAUAUGAAAUUGCTT against Cyth3 | inactive: -1.21
82 | GCAUAGUCCUGUGCUUACCTT against Sfmbt2 | inactive: -0.267
83 | GGCCUAAAGGCACAAUCUGTT against Nanos1 | inactive: -0.937
84 | CGAUGGACUUUUCGUUAACTT against Jun | inactive: 1.79
85 | GGAGACUCCUAAGAAGCAGTT against Cc2d1a | inactive: 0.445
86 | CCCAAGAAACUUCGCUUCCTT against Ehmt1 | inactive: -0.551
87 | GGAGCUCAAGAGCUGGGUUTT against Tor2a | inactive: -1.1
88 | GGCCUUUGAACACACUCCATT against G6pc2 | inactive: -1.31

Row | Sequence | z-score
89 | GGUGGUGAUAAGCUUCCUCTT against Olfr1417 | inactive: -1.87
90 | GGACGUGAACAAAAGAAGGTT against Scel | inactive: -0.647
91 | CCCAAAAACGUGACAUCUUTT against Inppl1 | inactive: 0.901
92 | GGCGUAUGUUCGCUUGGCUTT against Rpl23a | inactive: -0.0475
93 | GCAAGAGCAUGCUUACGGUTT against Ccl1 | inactive: -0.324
94 | GCACCUACUGAUUGAACGCTT against S100g | inactive: 1.77
95 | GGUCCAGCAUUUGAAAUUATT against Moap1 | inactive: 0.291
96 | GCCAAGAGCACAUCUGCUATT against Suco | inactive: -1.65
97 | GCCAAUUGAAGGAUAUCUUTT against Ocm | inactive: -0.752
98 | GGUUCUUUGUAUUGAUCAATT against Adamts20 | inactive: 0.632
99 | GGAACACACCUGUUAUGAUTT against Prkag3 | inactive: 0.0533
100 | CGCGUAUAGAACAUUAAUCTT against Cdc14b | inactive: 0.716
101 | CCAGAAUGUAUCCAGGCCUTT against St6galnac4 | inactive: -0.445
102 | CCAUCUAUACCCUGGACGATT against Galr2 | inactive: -0.168
103 | GGAGCUGAUAGGACUGAUGTT against Snap47 | active: 2.16
104 | GCUGGAUGCGACAAUCUGATT against Aqp11 | inactive: 0.913
105 | GGAGCAUUUGUUUCCAAGATT against Cd38 | inactive: -1.33
106 | GGCAUUAACCAUGAGUGUATT against Zfp423 | inactive: -0.861
107 | ACUGACCUUUGUUCCACAUTT against Vmn1r10 | inactive: 1.59
